## Library screening results

From ChEMBL document CHEMBL3988442, “University of Dundee, Small-Polar-MMV Screening Library” (2021).

The filed quantity is “Percent Effect” (%). The controls that fix the scale are not given in the record; negative values are as filed. This is an unselected part of the compounds tested. Two or more numbers in one place are separate tests of the same structure; such repeats can differ widely.

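Viability assay of Plasmodium falciparum sporozoites; the read-out is not stated. The concentration is filed as 10 mM, unlikely as a test dose, so the dose is not known. Direction is inferred from retests: higher values go with lower viability. Strong results were mostly tested again. Of about 34,000 compounds tested this way, about 280 (0.84%) reached 50% or more in at least one test.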

Compound | effect
Cl.NCC1(c2cccc(Br)c2)CCOCC1 | -5.186
Cc1cn2nc(N3CCCC3CC(C)(C)C)sc2n1 (stereo not shown) | -4.057
CN(Cc1noc(C2CC2)n1)C1CCN(Cc2ccncc2)C1 (stereo not shown) | 25.12
Cc1nc(CN2CCCN(CC(=O)Nc3ccncc3)CC2)no1 | -15.61
COc1cccc2cc(CNC(C)(C)C(=O)N3CCC(O)CC3)oc12 | -11.1
CN(C)C(=O)CN1CCC(c2cccc(Cc3ccc(F)cc3)n2)CC1 | 14.65
CN(c1ccc(C(=O)NCCCN2CCOCC2)c(Cl)c1)S(C)(=O)=O | -7.197
Cc1cnc(C(=O)N2CCC3(CC2)CN(c2ccccn2)CCO3)cn1 | -6.064
COc1cccc(F)c1C(C)NC(=O)NCc1cnc(C)s1 (stereo not shown) | -10.64
CCC(=O)N1CCC(O)(c2ncc(OC)nc2OC)CC1 | -19.55
O=C(O)C(F)(F)F.[H][C@@]12OCCC[C@]1([H])N(C)C[C@@H]2NC(=O)c1cscn1 | 7.05
CN1CCC(Cc2cnc3ccccc3c2)C1 (stereo not shown) | 2.519
CCN(CCn1cccn1)Cc1nc(-c2cccs2)oc1C | -9.183
[H][C@@]12OCCN(C(=O)c3nn(C)c4ccccc34)[C@@]1([H])CC[C@H]2OC(C)C | 10.23
O=C(CN(Cc1ccccc1)CC1CCOCC1)Nc1nccs1 | -3.835
O=C(O)CNc1cc(-c2cc(C3CC3)ncn2)c2cc[nH]c2n1 | -14.48
CCOCC(=O)N1CCC(c2nccn2CC2CC2)CC1 | 0.08772
COc1ccccc1N1CCC(CNS(=O)(=O)c2cccc(C#N)c2)C1 (stereo not shown) | 11.38
O=C(Nc1cccc(OCc2cccc(F)c2)c1)C1COCCO1 (stereo not shown) | -9.227
O=C(O)C(F)(F)F.c1coc(CN2CCCn3c(nnc3Cn3cccn3)C2)c1 | -6.559
CC(C)C1SCC(=O)Nc2c1c(O)nn2C1CCCCC1 (stereo not shown) | -12.99
COc1cc(C(=O)Nc2cn[nH]c2)ccc1C | 0.6951
CC(C)c1nn(C)c(Cl)c1CNCC(O)c1cccc(F)c1.Cl (stereo not shown) | -0.6936
CCOCC(O)CN1CCN(C(=O)c2ccc(N(C)C)nn2)CC1 (stereo not shown) | 16.29
O=C1CCCN1CCN1CCCC(c2ccn[nH]2)C1 (stereo not shown) | 8.876
COCCOCc1cccc(NC(=O)N2CCCC2c2ccncc2)c1 (stereo not shown) | -17.57
O=C(Cn1ccc2ccc(Cl)cc21)NCc1ccc(C(=O)O)cc1 | -9.718
Cc1nccn1C1CCCN(C(=O)c2ccc3c(c2)NC(=O)CO3)C1 (stereo not shown) | 9.12
CCC(NC(=O)c1nn(C)cc1C(=O)O)c1ccc(C)cc1C (stereo not shown) | 14.07
O=S(=O)(NCCc1cn2ccccc2n1)N1CCOCC1 | -7.353
Cc1noc(C)c1CN1CCOCC12CCN(c1cnccn1)CC2.O=C(O)C(F)(F)F | 5.254
[H][C@@]12OCCN(C(=O)c3ccnnc3)[C@@]1([H])CC[C@H]2Oc1cccnc1 | 2.888
Cl.O=C(O)C1(Cc2ccc(-c3cccs3)cc2)CCNC1 (stereo not shown) | -11.62
O=C(NCC1CC1)C1CN(C(=O)c2cccnc2)CC12CCOCC2 (stereo not shown) | 3.017
Cc1ccc(CN2CCC3(CC2)C(c2ccccc2)CC(=O)N3C)o1.O=C(O)C(F)(F)F (stereo not shown) | -10.62
O=C(O)C(F)(F)F.O=C(O)C(F)(F)F.O=C(O)C(F)(F)F.[H][C@@]12CCCO[C@]1([H])[C@H](N(C)Cc1cccnc1)CN2CC1CC1 | -1.407
Cc1ccnn1CCC(=O)N1C[C@@H](O)[C@H](Oc2cccc(F)c2)C1 | 9.644
CCn1ncc2c1C(COCC1CC1)CN(C(=O)c1cccs1)C2 (stereo not shown) | 1.964
CCNc1cc2c(nn1)CCN(C(=O)c1cc(C)n(C3CC3)c1C)C2 | 8.345
O=C(O)C(F)(F)F.c1ccc(CN2CCc3ncnc(-c4ccsc4)c3CC2)nc1 | -2.743
O=C(O)C(F)(F)F.O=C(c1ccc(F)cc1)N1CCC2(CC1)CC(N1CCOCC1)C2 | 5.596
O=C(c1cccc2c1OCCO2)N1CCCC1c1noc(C2CC2)n1 (stereo not shown) | 1.287
COc1nc2c(cc1C(=O)N(C)Cc1n[nH]c3c1CCCC3)CCC2 | 2.903 and -8.956
Cc1ccccc1CNC(=O)CN1CCN(Cc2nccn2C)CC1 | 15.68
Cn1c2c(c(=O)n1C)CN(C(=O)c1ccncc1F)CCC2 | -2.869
CC(C)OC(=O)N1CCC(Cc2cccc(C(N)=O)c2)C1 (stereo not shown) | -17.63
CC(C)[C@H](NS(C)(=O)=O)C(=O)NCc1cc(-c2ccccc2)nn1C | 3.472
CC(C)C(C)NC(=O)Nc1ccccc1CN1CCOCC1 (stereo not shown) | -10.38
O=C(c1cccc2cccnc12)N1CCCN(c2cccnn2)CC1 | -11.79
Cc1ccc(C2CCCN(S(C)(=O)=O)C2)nc1 (stereo not shown) | 7.705
CN1CCCCC1CC(=O)Nc1ccc2ncn(C)c2c1 (stereo not shown) | 16.89
COCc1cccc(NS(=O)(=O)c2cc(C(=O)O)cs2)c1 | 44.23 and 43.53 and 44.93
Cl.Cl.c1cc(COC[C@@H]2CCC[C@@]23CNCCO3)ccn1 | 11.66
C1CC(NCc2nnc(C3CC3)o2)CN(Cc2noc(C3CC3)n2)C1 (stereo not shown) | -0.3741
O=c1c2cnc(N3CCCCC3)nc2ccn1-c1ccccc1 | -16.24 and 46.49 and -5.815
Cc1ccc2oc(CN3CCn4nc(CCC(=O)O)cc4C3)c(C)c2c1 | -5.526
CC(C)n1nc(CN2CCCC2=O)c2c1CN(C(=O)c1ccco1)C2 | -0.1751
CC(CC(=O)c1ccccc1)NC(=O)c1ccon1 (stereo not shown) | 2.509
Cc1cccc(C(=O)N2CCc3c(COCC4CC4)cncc3C2)n1 | 0.1684
O=C(O)C(F)(F)F.[H][C@]12CCN(C(=O)c3ccncc3F)[C@@]1([H])CC[C@H](COCC(C)C)O2 | 2.544
c1ccc(Cc2noc(CN3CCc4cncnc4C3)n2)cc1 | 3.68
Cc1cc(C2CCCN(C(=O)COc3cc(C)on3)C2)n[nH]1 (stereo not shown) | 8.807
O=C([C@H]1CCCO1)N1CCC2(CC1)C(=O)N(CC1CC1)c1ccccc12 | 5.867
CCN(CC)C(=O)NCCc1ccn(-c2ccccc2)n1 | -0.6077
COc1cccc(CN(C)C(=O)CN2CCN(c3nccn3C)CC2)c1 | 5.365
NC(=O)N1CCC2(CCN(Cc3cccc(F)c3)CC2)CC1.O=C(O)C(F)(F)F | -2.617
COc1ccccc1OCc1cc(C(=O)N2CC(O)C2)n[nH]1 | -10.75
Cc1noc(C)c1CN1Cc2nccn2CC(CN2CCOCC2)C1.O=C(O)C(F)(F)F.O=C(O)C(F)(F)F (stereo not shown) | -0.8323
CC(=O)c1ccc(S(=O)(=O)NCC2CCN(c3cnccn3)CC2)cc1 | 13.52
CCN(Cc1ccc2c(c1)OCO2)C(=O)CCc1c(C)nc(C)[nH]c1=O | 1.154
O=C(CCC1CCCC1)N1CCC(c2ncc3c(n2)CCNC3)CC1 | -14.81
COC(=O)c1cc(C(=O)N2CCOCC2(C)C)n(-c2ccccc2)n1 | -6.76
O=C(O)C(F)(F)F.[H][C@@]12CCCO[C@]1([H])[C@H](OCC1CCOCC1)CN2c1ncc(F)cn1 | 9.282
CCCc1nc(N2Cc3cnn(Cc4ccc(F)cc4)c3C2)no1 | 0
CCCC(=O)NC(C)(C)Cc1ccccc1OC | 1.207
Cn1cccc(NC(=O)N2CCC(COCc3ccccc3)C2)c1=O (stereo not shown) | 10.74
Cc1cnn(CCNCc2cccc(C#N)c2)c1 | 1.698

For reference, 7 entries once more:

{"compound": "C1CC(NCc2nnc(C3CC3)o2)CN(Cc2noc(C3CC3)n2)C1", "stereo": "stereo not shown", "effect": -0.3741}
{"compound": "COc1nc2c(cc1C(=O)N(C)Cc1n[nH]c3c1CCCC3)CCC2", "effect": "2.903 and -8.956"}
{"compound": "O=C(Cn1ccc2ccc(Cl)cc21)NCc1ccc(C(=O)O)cc1", "effect": -9.718}
{"compound": "CN(Cc1noc(C2CC2)n1)C1CCN(Cc2ccncc2)C1", "stereo": "stereo not shown", "effect": 25.12}
{"compound": "CCC(NC(=O)c1nn(C)cc1C(=O)O)c1ccc(C)cc1C", "stereo": "stereo not shown", "effect": 14.07}
{"compound": "Cc1ccnn1CCC(=O)N1C[C@@H](O)[C@H](Oc2cccc(F)c2)C1", "effect": 9.644}
{"compound": "CN(c1ccc(C(=O)NCCCN2CCOCC2)c(Cl)c1)S(C)(=O)=O", "effect": -7.197}